Measured values reported in PubChem BioAssay AID264 (DTP/NCI, 2004).
The list does not hold the whole screen: it is rich in T/C values a quarter to a half above the control, in often repeated tests (any T/C) and in doses without a T/C. Further doses and runs are listed elsewhere. T/C is the treated group as % of the vehicle group. Schedules are NCI's codes, read here as Q, the interval in days (D) or hours (H), X, the number of doses. Some T/C values are followed by the survivors on the day toxicity was checked, most often the fifth; without a count, all were alive then. Some doses were run more than once; their values stand side by side, smallest first. Some doses have a count of surviving animals in place of a T/C: the source holds a T/C of zero for them, seemingly a mark for toxic or unscored doses. Counts of survivors are from the toxicity check (mostly the fifth day) where no day follows; animals may have died later.

System: nude mice, LX-1 lung xenograft intrarenal, tumor weight T/C
Experiment: NCI In Vivo Anticancer Drug Screen. Data for tumor model Human Lung LX-1 Xenograft (intrarenal inoculation) in NU/NU Swiss (nude) mice
Conditions: T/C endpoint: mean tumor weight change, higher T/C = larger tumour; for T/C: evaluated on day 11
Method: The antitumor activity of compounds was measured in mice bearing transplantable tumors. Survival or tumor size were measured and the results are expressed as the measurement made in the treated group (T) divided by the measurement made in the vehicle treated control group (C). The tumor model used in this assay is Human Lung LX-1 Xenograft (intrarenal inoculation) in NU/NU Swiss (nude) mice

[1] = dose: 300.0 mg/kg/injection, schedule: Q04DX003 (sc), vehicle: saline
[2] = dose: 200.0 mg/kg/injection, schedule: Q01DX010 (sc), vehicle: saline with Tween-80
[3] = dose: 300.0 mg/kg/injection, schedule: Q04DX003 (sc), vehicle: saline with Tween-80
[4] = dose: 24.0 mg/kg/injection, schedule: Q04DX003 (sc), vehicle: water
[5] = dose: 600.0 mg/kg/injection, schedule: Q04DX003 (sc), vehicle: saline with Tween-80
[6] = dose: 25.0 mg/kg/injection, schedule: Q01DX010 (sc), vehicle: saline

O=[N+]([O-])c1nccn1CC(O)CO (stereo unspecified)
T/C [1]: 133 % of control

N#Cc1nc(C#N)c(Sc2ccccc2)c(Sc2ccccc2)c1Sc1ccccc1
T/C (dose: 25.0 mg/kg/injection, schedule: Q01DX010 (sc), vehicle: saline with Tween-80): 142 % of control [2 of 3 alive on day 11] | T/C (dose: 50.0 mg/kg/injection, schedule: Q01DX010 (sc), vehicle: saline with Tween-80): 142 % of control | survivor count (dose: 100.0 mg/kg/injection, schedule: Q01DX010 (sc), vehicle: saline with Tween-80): 1 of 3 on day 11 | survivor count [2]: 1 of 2 on day 11

O=S(=O)(c1ccccc1)N1CN2CCN(C2)C1
T/C [3]: 134 % of control

[N-]=[N+]=C1N=CN=C1c1ncn[nH]1
T/C (dose: 25.0 mg/kg/injection, schedule: Q01DX010 (sc), vehicle: Klucel (hydroxypropylcellulose) (HPC)): 128 % of control | survivor count (dose: 100.0 mg/kg/injection, schedule: Q01DX010 (sc), vehicle: Klucel (hydroxypropylcellulose) (HPC)): 0 of 3 on day 11

CCC1=C[C@H]2CN(CCc3c([nH]c4ccccc34)[C@@](C(=O)OC)(c3cc4c(cc3OC)N(C)[C@H]3[C@@](O)(C(=O)OC)[C@H](OC(C)=O)[C@]5(CC)C=CCN6CC[C@]43[C@@H]65)C2)C1
survivor count [4]: 2 of 6 on day 11 | survivor count (dose: 48.0 mg/kg/injection, schedule: Q04DX003 (sc), vehicle: water): 3 of 6 on day 11

CCCCCC[C@H]([C@H](C)O)n1cnc2c(N)ncnc21
survivor count (dose: 400.0 mg/kg/injection, schedule: Q01DX010 (sc), vehicle: Klucel (hydroxypropylcellulose) (HPC)): 0 of 3 on day 11 | survivor count (dose: 800.0 mg/kg/injection, schedule: Q01DX010 (sc), vehicle: Klucel (hydroxypropylcellulose) (HPC)): 0 of 3 on day 11

COC1=C(OC)C(=O)C(SC/C=C(\C)CCCC(C)CCCC(C)CCCC(C)C)=CC1=O (stereo unspecified)
survivor count [3]: 3 of 5 on day 11

COc1cccc2c1C(=O)c1c(O)c3c(c(O)c1C2=O)C[C@@](O)(/C(C)=N/NC(=O)c1ccc(Cl)cc1)C[C@@H]3OC1CC(N)C(O)C(C)O1 (stereo partly specified)
T/C [4]: 129 % of control | survivor count (dose: 32.0 mg/kg/injection, schedule: Q01DX010 (sc), vehicle: water): 0 of 3 on day 11

Nc1ncnc2c1ccn2C1OC(CO)C(O)C1O (stereo unspecified)
survivor count (dose: 8.0 mg/kg/injection, schedule: Q01DX010 (sc), vehicle: Klucel (hydroxypropylcellulose) (HPC)): 0 of 3 on day 11

O=CC=O
survivor count [2]: 1 of 3 on day 11 | survivor count (dose: 400.0 mg/kg/injection, schedule: Q01DX010 (sc), vehicle: saline with Tween-80): 0 of 3 on day 11

C[Si](C)(C)n1nnn(-c2ccccc2)c1=O
survivor count [5]: 3 of 6 on day 11

O=[n+]1c2ccccc2n([O-])c2ccccc21.[Cl][Ni][Cl]
T/C (dose: 37.5 mg/kg/injection, schedule: Q04DX003 (sc), vehicle: saline with Tween-80): 129 [5 of 6 alive on day 11] and 136 % of control [5 of 6 alive on day 11] | survivor count (dose: 150.0 mg/kg/injection, schedule: Q04DX003 (sc), vehicle: saline with Tween-80): 3 of 6 on day 11 | survivor count [3]: 0 of 6 on day 11

COc1ccc2c(NCCCCCCNc3c4ccccc4nc4cc(OC)ccc34)c3ccccc3nc2c1
T/C (dose: 5.0 mg/kg/injection, schedule: Q01DX010 (sc), vehicle: lactic acid): 143 % of control

[Cl][Sn]([c]1ccccc1)[c]1ccccc1
T/C [1]: 131 % of control | T/C (dose: 1200.0 mg/kg/injection, schedule: Q04DX003 (sc), vehicle: saline): 145 % of control

Nc1nncs1
T/C (dose: 6.25 mg/kg/injection, schedule: Q01DX010 (sc), vehicle: saline): 134 % of control | survivor count [6]: 1 of 3 on day 11 | survivor count (dose: 50.0 mg/kg/injection, schedule: Q01DX010 (sc), vehicle: saline): 0 of 3 on day 11

Oc1ccc(CCl)c2cccnc12
survivor count (dose: 600.0 mg/kg/injection, schedule: Q04DX003 (sc), vehicle: saline): 3 of 6 on day 11

OC(CCl)CN1CC[N+]2(CC1)CC[N+]1(CCN(CC(O)CCl)CC1)CC2 (stereo unspecified)
survivor count (dose: 512.0 mg/kg/injection, schedule: Q01DX010 (sc), vehicle: water): 1 of 3 on day 11 | survivor count (dose: 1024.0 mg/kg/injection, schedule: Q01DX010 (sc), vehicle: water): 0 of 3 on day 11

CCOC(=O)C(C)(C)Oc1ccc(Cl)cc1
survivor count (dose: 2400.0 mg/kg/injection, schedule: Q04DX003 (sc), vehicle: saline with Tween-80): 0 of 6 on day 11

c1ccc([P+](c2ccccc2)(c2ccccc2)c2ccccc2)cc1
survivor count (dose: 40.0 mg/kg/injection, schedule: Q04DX003 (sc), vehicle: saline): 0 of 6 on day 11 | survivor count (dose: 80.0 mg/kg/injection, schedule: Q04DX003 (sc), vehicle: saline): 0 of 6 on day 11

CN=C(NC#N)NCCSCc1nc[nH]c1C
survivor count (dose: 2400.0 mg/kg/injection, schedule: Q04DX003 (sc), vehicle: Klucel (hydroxypropylcellulose) (HPC)): 2 of 6 on day 11

O/N=C/c1ccccc1O.O/N=C/c1ccccc1O.[Cu]
survivor count (dose: 400.0 mg/kg/injection, schedule: Q04DX003 (sc), vehicle: saline with Tween-80): 3 of 6 on day 11 | T/C (dose: 1600.0 mg/kg/injection, schedule: Q04DX003 (sc), vehicle: saline with Tween-80): 130 % of control [5 of 6 alive on day 11]

CN1CCN(c2ccc([N+](=O)[O-])c3no[n+]([O-])c23)CC1
survivor count [3]: 2 of 6 on day 11 | survivor count [5]: 2 of 6 on day 11 | survivor count (dose: 1200.0 mg/kg/injection, schedule: Q04DX003 (sc), vehicle: saline with Tween-80): 0 of 6 on day 11

CC1=CC(=Nc2ccc(N(CCCl)CCCl)cc2)C=C(C)C1=O
survivor count (dose: 300.0 mg/kg/injection, schedule: Q04DX003 (sc), vehicle: Klucel (hydroxypropylcellulose) (HPC)): 3 of 6 on day 11 | survivor count (dose: 1200.0 mg/kg/injection, schedule: Q04DX003 (sc), vehicle: Klucel (hydroxypropylcellulose) (HPC)): 3 of 6 on day 11

CCC/C=C/C=C/C(=O)OC1/C(=C/C(=O)OC)CC2CC(C(C)O)OC(=O)CC(O)CC3CC(OC(C)=O)C(C)(C)C(O)(CC4C/C(=C/C(=O)OC)CC(/C=C/C(C)(C)C1(O)O2)O4)O3 (stereo unspecified)
survivor count (dose: 4.0 mg/kg/injection, schedule: Q04DX003 (sc), vehicle: saline + alcohol): 2 of 6 on day 11

Cc1c2c(ccc3ccccc32)c[n+]2ccccc12
survivor count [6]: 0 of 3 on day 11

Nc1ccc(Cl)cc1N
survivor count (dose: 1800.0 mg/kg/injection, schedule: Q04DX003 (sc), vehicle: saline with Tween-80): 0 of 6 on day 11 | survivor count (dose: 3600.0 mg/kg/injection, schedule: Q04DX003 (sc), vehicle: saline with Tween-80): 0 of 6 on day 11
